Results: the supplement of paper PMC12823440, “Inhibitors supercharge kinase turnover through native proteolytic circuits” (Nature, 2025)
Structures can show the parent of a compound that is named as a salt. The list shows a part of the results. Hit calls seldom repeat between salt and free forms of one compound.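 In K562 cells expressing nanoluciferase-fused kinases, luminescence was recorded at 4 h intervals between 2 and 18 h, normalized as percent of control with DMSO at 100% and a positive control at 0%. A significant (2 sigma) signal drop marks a time point as decreased. The authors' rule for a hit is not shown and takes in more than the number of time points.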

Protein sequences, listed by entry. Tags and fused reporters are not part of them. Lines headed by an entry give the natural chain unless they say otherwise; changes in a name come on top.
UniProt Q9UM73: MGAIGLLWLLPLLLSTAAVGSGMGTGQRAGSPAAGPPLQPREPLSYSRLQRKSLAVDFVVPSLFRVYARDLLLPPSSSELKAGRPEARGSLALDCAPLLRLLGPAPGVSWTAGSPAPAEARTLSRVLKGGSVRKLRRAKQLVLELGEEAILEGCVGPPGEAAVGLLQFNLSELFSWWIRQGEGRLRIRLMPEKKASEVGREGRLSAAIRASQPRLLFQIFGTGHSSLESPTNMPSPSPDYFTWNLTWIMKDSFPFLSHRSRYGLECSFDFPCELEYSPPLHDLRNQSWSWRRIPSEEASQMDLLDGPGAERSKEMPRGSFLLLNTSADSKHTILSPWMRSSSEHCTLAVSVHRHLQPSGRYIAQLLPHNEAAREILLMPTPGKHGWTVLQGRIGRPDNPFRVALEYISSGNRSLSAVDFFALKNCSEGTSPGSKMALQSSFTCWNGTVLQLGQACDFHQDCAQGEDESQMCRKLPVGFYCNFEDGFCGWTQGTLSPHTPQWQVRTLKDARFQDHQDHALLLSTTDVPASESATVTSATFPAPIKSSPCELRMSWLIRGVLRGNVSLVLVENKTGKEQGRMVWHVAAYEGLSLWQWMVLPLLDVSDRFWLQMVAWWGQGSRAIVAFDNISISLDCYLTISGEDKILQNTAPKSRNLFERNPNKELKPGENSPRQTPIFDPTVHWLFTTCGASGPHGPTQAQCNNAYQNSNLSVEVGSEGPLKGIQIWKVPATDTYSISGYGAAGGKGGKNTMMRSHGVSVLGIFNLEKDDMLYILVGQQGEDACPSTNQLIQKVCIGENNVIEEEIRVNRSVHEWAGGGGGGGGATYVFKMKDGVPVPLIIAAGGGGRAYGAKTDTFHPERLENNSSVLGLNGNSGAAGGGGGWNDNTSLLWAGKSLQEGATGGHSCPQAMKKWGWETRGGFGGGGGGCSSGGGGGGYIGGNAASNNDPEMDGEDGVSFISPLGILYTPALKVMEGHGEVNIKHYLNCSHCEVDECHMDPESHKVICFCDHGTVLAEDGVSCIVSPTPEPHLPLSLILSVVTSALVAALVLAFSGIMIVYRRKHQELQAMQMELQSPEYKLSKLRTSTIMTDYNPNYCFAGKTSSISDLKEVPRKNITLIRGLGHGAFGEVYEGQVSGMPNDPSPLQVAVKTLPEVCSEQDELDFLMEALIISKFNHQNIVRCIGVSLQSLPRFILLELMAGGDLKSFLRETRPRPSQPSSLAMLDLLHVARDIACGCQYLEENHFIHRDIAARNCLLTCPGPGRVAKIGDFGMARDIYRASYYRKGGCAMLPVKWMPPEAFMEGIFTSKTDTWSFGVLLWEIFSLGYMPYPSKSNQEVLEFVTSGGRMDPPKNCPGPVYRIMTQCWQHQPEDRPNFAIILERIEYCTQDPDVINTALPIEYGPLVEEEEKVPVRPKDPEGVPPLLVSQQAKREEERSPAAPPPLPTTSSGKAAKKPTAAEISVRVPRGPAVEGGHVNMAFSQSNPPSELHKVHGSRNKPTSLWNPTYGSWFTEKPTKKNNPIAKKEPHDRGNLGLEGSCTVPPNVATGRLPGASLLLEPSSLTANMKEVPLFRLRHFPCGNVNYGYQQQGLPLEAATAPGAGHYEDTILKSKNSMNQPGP
UniProt P10398: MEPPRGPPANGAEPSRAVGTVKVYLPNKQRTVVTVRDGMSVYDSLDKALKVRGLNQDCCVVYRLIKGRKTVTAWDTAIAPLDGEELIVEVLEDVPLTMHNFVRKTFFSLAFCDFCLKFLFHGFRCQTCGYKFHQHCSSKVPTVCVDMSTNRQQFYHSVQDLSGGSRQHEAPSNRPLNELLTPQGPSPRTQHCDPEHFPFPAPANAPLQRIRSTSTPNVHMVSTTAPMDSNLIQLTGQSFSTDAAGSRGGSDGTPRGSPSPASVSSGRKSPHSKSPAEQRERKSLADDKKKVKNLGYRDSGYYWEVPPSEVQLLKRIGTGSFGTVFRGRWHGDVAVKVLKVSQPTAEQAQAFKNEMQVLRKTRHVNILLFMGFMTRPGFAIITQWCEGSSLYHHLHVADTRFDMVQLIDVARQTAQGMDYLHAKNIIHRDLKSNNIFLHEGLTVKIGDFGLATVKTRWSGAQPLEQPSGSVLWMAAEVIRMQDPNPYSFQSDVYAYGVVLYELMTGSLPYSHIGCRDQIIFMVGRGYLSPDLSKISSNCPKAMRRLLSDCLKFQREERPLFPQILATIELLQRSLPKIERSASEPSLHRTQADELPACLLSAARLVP
UniProt O14965: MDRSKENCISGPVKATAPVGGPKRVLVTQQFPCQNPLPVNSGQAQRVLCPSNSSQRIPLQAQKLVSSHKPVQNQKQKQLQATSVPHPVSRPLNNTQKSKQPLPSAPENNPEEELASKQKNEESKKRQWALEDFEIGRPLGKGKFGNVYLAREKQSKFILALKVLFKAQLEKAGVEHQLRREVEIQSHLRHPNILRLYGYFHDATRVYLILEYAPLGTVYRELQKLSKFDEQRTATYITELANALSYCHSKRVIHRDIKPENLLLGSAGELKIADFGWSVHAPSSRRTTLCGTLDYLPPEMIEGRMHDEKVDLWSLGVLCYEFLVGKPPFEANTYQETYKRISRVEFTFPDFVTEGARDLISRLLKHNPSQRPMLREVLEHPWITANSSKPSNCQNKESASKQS
UniProt Q96GD4, whole entry: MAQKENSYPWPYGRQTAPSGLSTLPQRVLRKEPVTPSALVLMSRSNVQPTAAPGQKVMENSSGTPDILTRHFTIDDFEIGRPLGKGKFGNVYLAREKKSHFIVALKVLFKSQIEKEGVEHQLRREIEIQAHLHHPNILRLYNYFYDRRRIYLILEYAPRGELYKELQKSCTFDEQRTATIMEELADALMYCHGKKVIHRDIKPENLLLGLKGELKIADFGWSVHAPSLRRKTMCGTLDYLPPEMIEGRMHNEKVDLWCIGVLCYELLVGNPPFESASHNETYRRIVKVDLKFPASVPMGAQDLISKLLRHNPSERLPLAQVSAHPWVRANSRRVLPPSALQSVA
UniProt Q9UQB9: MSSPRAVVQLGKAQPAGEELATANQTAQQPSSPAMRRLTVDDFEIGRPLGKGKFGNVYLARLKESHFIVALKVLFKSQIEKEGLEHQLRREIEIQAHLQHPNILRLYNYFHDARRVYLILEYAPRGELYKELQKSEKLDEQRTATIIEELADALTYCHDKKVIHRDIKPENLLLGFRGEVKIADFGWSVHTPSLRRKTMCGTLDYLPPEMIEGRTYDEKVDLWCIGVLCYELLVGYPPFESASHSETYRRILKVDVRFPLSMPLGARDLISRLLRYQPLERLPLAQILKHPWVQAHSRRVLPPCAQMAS
UniProt P51451: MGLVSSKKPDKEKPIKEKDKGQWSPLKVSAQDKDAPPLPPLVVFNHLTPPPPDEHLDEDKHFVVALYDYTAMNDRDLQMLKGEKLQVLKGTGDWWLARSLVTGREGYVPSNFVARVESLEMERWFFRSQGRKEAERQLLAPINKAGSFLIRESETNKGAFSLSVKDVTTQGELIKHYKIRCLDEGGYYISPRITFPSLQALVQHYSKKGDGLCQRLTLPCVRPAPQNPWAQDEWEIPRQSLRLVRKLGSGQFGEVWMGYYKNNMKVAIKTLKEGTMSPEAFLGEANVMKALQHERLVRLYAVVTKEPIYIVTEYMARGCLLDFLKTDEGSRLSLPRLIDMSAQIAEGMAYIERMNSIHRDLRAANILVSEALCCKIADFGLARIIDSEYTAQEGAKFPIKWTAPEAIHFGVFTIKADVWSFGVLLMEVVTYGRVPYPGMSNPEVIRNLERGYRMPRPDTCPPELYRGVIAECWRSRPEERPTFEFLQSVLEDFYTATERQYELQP
UniProt P51813: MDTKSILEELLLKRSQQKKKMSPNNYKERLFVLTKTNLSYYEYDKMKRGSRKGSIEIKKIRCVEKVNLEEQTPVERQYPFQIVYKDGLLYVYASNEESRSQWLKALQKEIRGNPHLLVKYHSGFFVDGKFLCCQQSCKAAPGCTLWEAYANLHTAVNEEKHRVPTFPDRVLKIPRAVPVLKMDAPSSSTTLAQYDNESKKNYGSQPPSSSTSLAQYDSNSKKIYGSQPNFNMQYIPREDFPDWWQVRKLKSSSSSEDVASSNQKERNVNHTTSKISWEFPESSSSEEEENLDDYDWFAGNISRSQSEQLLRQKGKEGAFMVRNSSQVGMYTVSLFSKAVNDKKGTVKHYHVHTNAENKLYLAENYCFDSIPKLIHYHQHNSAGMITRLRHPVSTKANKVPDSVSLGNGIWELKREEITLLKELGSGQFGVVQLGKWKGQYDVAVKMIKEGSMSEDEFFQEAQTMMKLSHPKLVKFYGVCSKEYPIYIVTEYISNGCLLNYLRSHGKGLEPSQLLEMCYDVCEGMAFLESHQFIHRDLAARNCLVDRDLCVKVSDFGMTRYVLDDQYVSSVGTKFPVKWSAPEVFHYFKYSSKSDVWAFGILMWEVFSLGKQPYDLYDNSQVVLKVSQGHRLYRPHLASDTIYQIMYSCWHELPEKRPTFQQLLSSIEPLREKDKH
UniProt P15056, whole entry, looked up: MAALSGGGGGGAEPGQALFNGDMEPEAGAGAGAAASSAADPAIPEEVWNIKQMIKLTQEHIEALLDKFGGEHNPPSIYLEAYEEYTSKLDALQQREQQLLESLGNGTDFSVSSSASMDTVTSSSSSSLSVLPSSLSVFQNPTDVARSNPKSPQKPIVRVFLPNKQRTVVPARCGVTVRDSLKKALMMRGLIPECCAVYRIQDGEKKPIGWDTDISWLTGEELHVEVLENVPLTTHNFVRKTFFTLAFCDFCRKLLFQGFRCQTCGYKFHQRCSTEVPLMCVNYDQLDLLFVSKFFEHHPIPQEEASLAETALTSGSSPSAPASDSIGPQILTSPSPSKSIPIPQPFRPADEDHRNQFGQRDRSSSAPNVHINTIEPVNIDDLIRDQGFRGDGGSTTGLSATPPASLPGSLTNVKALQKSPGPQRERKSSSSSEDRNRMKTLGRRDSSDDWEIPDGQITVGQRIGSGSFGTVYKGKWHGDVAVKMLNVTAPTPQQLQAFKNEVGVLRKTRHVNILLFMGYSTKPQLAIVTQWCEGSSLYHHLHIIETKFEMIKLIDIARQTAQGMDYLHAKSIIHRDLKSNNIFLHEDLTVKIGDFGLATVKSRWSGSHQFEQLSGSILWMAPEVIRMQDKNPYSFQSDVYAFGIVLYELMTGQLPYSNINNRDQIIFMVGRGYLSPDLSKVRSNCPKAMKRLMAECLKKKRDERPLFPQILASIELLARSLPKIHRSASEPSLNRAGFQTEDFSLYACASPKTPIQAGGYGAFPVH
UniProt Q06187: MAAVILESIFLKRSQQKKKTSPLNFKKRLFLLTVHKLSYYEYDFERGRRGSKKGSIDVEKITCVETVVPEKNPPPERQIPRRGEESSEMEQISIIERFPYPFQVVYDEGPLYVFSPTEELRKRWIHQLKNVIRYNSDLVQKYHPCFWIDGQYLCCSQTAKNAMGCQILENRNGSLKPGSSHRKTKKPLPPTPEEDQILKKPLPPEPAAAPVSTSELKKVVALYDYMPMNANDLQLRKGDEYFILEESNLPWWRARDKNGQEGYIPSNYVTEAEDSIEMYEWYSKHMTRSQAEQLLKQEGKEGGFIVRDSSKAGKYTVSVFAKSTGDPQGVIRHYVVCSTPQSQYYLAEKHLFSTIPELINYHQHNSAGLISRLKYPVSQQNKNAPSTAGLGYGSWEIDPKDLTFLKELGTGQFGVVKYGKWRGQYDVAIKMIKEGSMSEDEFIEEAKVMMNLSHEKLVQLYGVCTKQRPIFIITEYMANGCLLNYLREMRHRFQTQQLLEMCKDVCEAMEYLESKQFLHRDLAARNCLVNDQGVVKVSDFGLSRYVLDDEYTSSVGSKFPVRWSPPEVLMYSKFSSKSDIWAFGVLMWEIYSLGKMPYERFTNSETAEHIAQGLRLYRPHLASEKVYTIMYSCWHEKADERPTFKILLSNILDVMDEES

Assays:
Assay in all cases: number of time points (of 5) at which kinase-Nluc abundance scored as decreased, DMSO-normalised (count); higher = more persistent destabilization
Conditions in all cases: K562; 2-18 h
ALK = ALK (UniProt Q9UM73)
ARAF = ARAF (UniProt P10398)
AURKA = AURKA (UniProt O14965)
AURKB = AURKB (UniProt Q96GD4)
AURKC = AURKC (UniProt Q9UQB9)
BLK = BLK (UniProt P51451)
BMX = BMX (UniProt P51813)
BRAF = BRAF (UniProt P15056)
BRAF_V600E = tested on: BRAF_V600E
BTK = BTK (UniProt Q06187)

Measured: number of time points

CCOc1nc(Nc2ccc(C(=O)N3CCOCC3)cc2OC)nc2[nH]ccc12 [LRRK2 inhibitor 1] (2.5 µM)
0: all assays above

O=C(O)c1ccc(N2N=C(Cc3ccccc3)C(=Cc3ccc(-c4ccccc4F)o3)C2=O)cc1 (10 µM)
0: all assays above

C=CC(=O)Nc1cccc(Oc2nc(Nc3ccc(N4CCN(C)CC4)cc3)nc3ccoc23)c1 [Poseltinib] (10 µM)
0: all assays above

CN1CCN(CCCNc2ncc(Cl)c(-c3cc4c(C(=O)NC5CC5)cccc4s3)n2)CC1 (10 µM)
0: all assays above

C[C@@H]1C[C@H]2O[C@@]3(O[C@@H]2C(C)(C)O)[C@H](O)[C@@]2(C)[C@@H]4CC[C@H]5C(C)(C)[C@@H](O[C@@H]6OC[C@H](O)[C@H](O)[C@H]6O)CC[C@@]56C[C@@]46CC[C@]2(C)[C@@H]13 [Cimiracemoside C] (10 µM)
0: all assays above

COc1cc(C(C)=O)cc(OC)c1O [Acetosyringone] (10 µM)
0: all assays above

O=c1ccc2ccc(O)c(O)c2o1 [Daphnetin] (10 µM)
0: all assays above

Nc1ncc(-c2ccc(C(=O)N3CCNCC3)cc2)nc1-c1ccc(C(F)(F)F)cc1 (10 µM)
0: all assays above

Cc1cc(C(C)Nc2ccccc2)c2nc(N3CCOCC3)cc(=O)n2c1 (stereo not given) (10 µM)
0: all assays above

N#Cc1ccc(-c2c(-c3ncn[nH]3)sc(N3CCOCC3)c2C#N)c(F)c1 (10 µM)
2: BRAF_V600E
3: AURKA
0: all other assays above

Cc1ccc(-c2ncn(-c3ccc(Nc4nccc(-c5cccc(N6CCOCC6)c5)n4)cc3)n2)cn1 (10 µM)
0: all assays above

OCCN(CCO)c1ccc(C(c2ccc(Cl)cc2)c2ccc(N(CCO)CCO)cc2)cc1 (10 µM)
2: ALK
3: BMX
1: AURKB | BRAF_V600E
0: all other assays above

CC(C)n1cnc2c(Nc3cccc(Cl)c3)nc(NCCO)nc21 (10 µM)
0: all assays above

COC1(C(=O)N[C@@H](C)c2ccc(-n3cc(F)cn3)nc2)CCC(c2nc(C)cc(Nc3cc(C)[nH]n3)n2)CC1 (stereo partly drawn) [trans-Pralsetinib] (2.5 µM)
0: all assays above

COC(=O)[C@@]1(C)CC[C@]2(C(=O)O)CC[C@]3(C)C(=CC[C@@H]4[C@@]5(C)C[C@H](O)[C@H](O[C@@H]6OC[C@@H](O[C@@H]7O[C@H](CO)[C@@H](O)[C@H](O)[C@H]7O)[C@H](O)[C@H]6O)[C@@](C)(CO)[C@@H]5CC[C@]43C)[C@@H]2C1 [Esculentoside A] (10 µM)
0: all assays above

O=C1NCCCc2c1oc1ccc(O)cc21 (10 µM)
0: all assays above

COc1ncc(Nc2ncc([C@@H](C)N3CCN(S(C)(=O)=O)CC3)cc2-c2nc(C)nc(N)n2)cc1F (10 µM)
1: BLK
0: all other assays above

CN(C)Cc1cccc(N=C(c2ccccc2)c2c(O)[nH]c3cc(C(=O)N(C)C)ccc23)c1 (10 µM)
0: all assays above

Cn1ncc(Cl)c1-c1cc(C(=O)N[C@H](CN)Cc2ccc(F)c(F)c2)sc1Cl (10 µM)
1: AURKB | BRAF_V600E
3: AURKA
0: all other assays above

CNC(=O)c1ccc(-c2cnc3cnc(-c4ccccc4)cn23)cc1 (10 µM)
0: all assays above

COc1ccc2c(c1OC)OC1c3ccc(O)cc3OCC21 (stereo not given) [Methylnissolin] (10 µM)
2: BRAF_V600E
0: all other assays above

3 compounds picked at random from those above:
C[C@@H]1C[C@H]2O[C@@]3(O[C@@H]2C(C)(C)O)[C@H](O)[C@@]2(C)[C@@H]4CC[C@H]5C(C)(C)[C@@H](O[C@@H]6OC[C@H](O)[C@H](O)[C@H]6O)CC[C@@]56C[C@@]46CC[C@]2(C)[C@@H]13 [Cimiracemoside C] (10 µM)
0: all assays above

O=C(O)c1ccc(N2N=C(Cc3ccccc3)C(=Cc3ccc(-c4ccccc4F)o3)C2=O)cc1 (10 µM)
0: all assays above

CC(C)n1cnc2c(Nc3cccc(Cl)c3)nc(NCCO)nc21 (10 µM)
0: all assays above

(cont.)

COc1cc(N2CCC(O)CC2)ccc1Nc1cc(Nc2ccccc2S(=O)(=O)C(C)C)c2cc[nH]c2n1 (10 µM)
0: all assays above

O=C1NC(=O)C(c2cn(-c3ccccc3)nc2-c2ccc(F)cc2)N1 (stereo not given) (10 µM)
0: all assays above

COc1ccc2c(=O)c(-c3ccccc3)coc2c1 [7-Methoxyisoflavone] (10 µM)
2: BRAF_V600E
4: AURKA | AURKB
0: all other assays above

O=c1nc(N2CCOCC2)oc2c(-c3cccc4c3sc3ccccc34)cccc12 (10 µM)
0: all assays above

CCCCOc1ccc(CC/C=C2\SC(=O)N(CCN)C2=O)cc1 [K145 (hydrochloride)] (2.5 µM)
0: all assays above

Cc1cc2cc(Oc3ccnc(Nc4cccc(CS(=O)(=O)NCCN(C)C)c4)n3)ccc2[nH]1 [Sulfatinib] (10 µM)
2: BRAF_V600E
1: BMX
0: all other assays above

C[C@@H]1CCc2ncc(F)cc2[C@H]2CCCN2c2ccn3ncc(c3n2)C(=O)N1 [Selitrectinib] (10 µM)
1: BRAF
0: all other assays above

CC[C@@H]1C(=O)N(C)c2cnc(Nc3ccc(C(=O)N[C@H]4CC[C@H](N5CCN(CC6CC6)CC5)CC4)cc3OC)nc2N1C(C)C [Volasertib] (2.5 µM)
0: all assays above

CC(C)(C)C(=O)N1N=CC[C@H]1c1ccccc1 (10 µM)
0: all assays above

Nc1nc2cc(-c3ccc4ncc(C(=O)N5CCOCC5)n4c3)ccc2o1 [Serabelisib] (10 µM)
0: all assays above

COc1cc2ncnc(Nc3ccc(NC(=O)c4ccccc4)cc3)c2cc1OC [Aurora kinase inhibitor-2] (2.5 µM)
1: BRAF_V600E
0: all other assays above

C=C(F)C(=O)N1CCN(c2nc(OC[C@@H]3CCCN3C)nc3c2CCN(c2cccc4cccc(Cl)c24)C3)C[C@@H]1CC#N (2.5 µM)
0: all assays above

CCc1cccc(CC)c1NC(=O)c1nn(C)c2c1CCc1cnc(Nc3ccc(C(=O)NC4CCN(C)CC4)cc3OC(F)(F)F)nc1-2 (2 µM)
0: all assays above

O=C(c1ccc(Nc2nccc(-c3cc4ccccc4s3)n2)cc1)N1CCC(N2CCCC2)CC1 (2.5 µM)
0: all assays above

COc1ccc(CCNc2ncc3c(=O)n(-c4cccc(F)c4)c(=O)[nH]c3n2)cc1OC (2 µM)
0: all assays above

O=C1NC(=O)C(=Cc2ccc3c(c2)OCO3)S1 (10 µM)
0: all assays above

Cn1cc(-c2cc3c(N4CCN(c5ncc([C@@](C)(N)c6ccc(F)cc6)cn5)CC4)ncnn3c2)cn1 [Avapritinib] (2.5 µM)
0: all assays above
